Experimental data: PubChem BioAssay AID686938 (Drosophila RNAi Screening Center, 2013)
Assay: 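Looking for CRAC channel components and the factors controlling them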 (primary screen). Cells: Drosophila S2R+ cells. Reagent: long dsRNA against Drosophila genes, about 0.25 µg dsRNA per well, roughly 10,000 cells. Time to read-out: 5 days of knock-down before the calcium assay. Treatment: thapsigargin (SERCA pump blocker) to empty calcium stores; entry signal taken 4 min after adding it. Measurement: 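Per-well fluo-4 fluorescence in two replicates, unnormalised, measured in resting cells and 4 min after store depletion by the SERCA blocker thapsigargin; ratio of the two present in few wells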. Reading the numbers: calcium entry signal: higher = stronger calcium signal after store depletion; entry to resting ratio: higher = more calcium entry relative to resting level; resting calcium signal: higher = higher resting calcium signal. Active means: 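Called when the plate z-score of the entry-to-rest ratio, mean of duplicates, falls below −3; wells with low overall dye signal (Fmax z below −2) or more than five off-targets excluded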. Calls: active = strongly reduced calcium entry; inactive = no strong reduction.
In all, the deposit lists about 23,000 reagents; below is a random part of those with a known target gene and a result. Of all reagents, 75 (0.33%) got an active call. 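Raw plate signals without normalisation; calls rest on plate z-scores that were not deposited; ratio present for only 364 wells.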 A number with no mark means an inactive call. A plus sign joins genes that one reagent is predicted to hit. Not given: the dose of the treatment.

| gene knocked down | DRSC id | calcium entry signal, replicate 1 (fluorescence units) | calcium entry signal, replicate 2 (fluorescence units) | entry to resting ratio | resting calcium signal, replicate 1 (fluorescence units) | resting calcium signal, replicate 2 (fluorescence units) |
| --- | --- | --- | --- | --- | --- | --- |
| Pgant6 | DRSC08552 | 3.81e7 | 3.88e7 | – | 1.98e7 | 2.07e7 |
| Osi18 | DRSC12181 | 5.12e7 | 4.81e7 | – | 2.35e7 | 2.08e7 |
| Drep3 | DRSC06312 | 3.43e7 | 6.44e7 | – | 1.76e7 | 3.30e7 |
| Drep3 | DRSC07529 | 4.70e7 | 3.60e7 | – | 2.56e7 | 1.81e7 |
| Drep3 | DRSC22344 | 3.38e7 | 6.01e7 | – | 1.64e7 | 2.80e7 |
| LSm3 | DRSC15920 | 5.26e7 | 5.35e7 | – | 2.59e7 | 2.26e7 |
| prd | DRSC03597 | 4.61e7 | – | – | 2.10e7 | – |
| CG5532 | DRSC04509 | 3.04e7 | 2.09e7 | – | 1.41e7 | 1.11e7 |
| LBR | DRSC04298 | 2.14e7 | – | – | 1.13e7 | – |
| Cyp12e1 | DRSC16622 | 3.03e7 | 3.31e7 | – | 1.43e7 | 1.63e7 |
| Or22c | DRSC00766 | 3.42e7 | 3.84e7 | – | 1.61e7 | 1.74e7 |
| Lcp9 | DRSC04287 | 4.48e7 | 5.58e7 | – | 2.21e7 | 2.39e7 |
| 4E-T | DRSC17201 | 5.53e7 | 5.27e7 | – | 2.32e7 | 2.46e7 |
| 4E-T | DRSC17208 | 3.40e7 | 5.68e7 | 1.9 | 1.80e7 | 2.40e7 |
| pod1 | DRSC18362 | 3.98e7 | 4.47e7 | – | 1.97e7 | 2.02e7 |
| Gr36c | DRSC02437 | 3.58e7 | 2.57e7 | – | 1.65e7 | 1.31e7 |
| CG6788 + CR32496 | DRSC22043 | 3.23e7 | 4.72e7 | – | 1.53e7 | 2.46e7 |
| dpr20 | DRSC08265 | 2.45e7 | 2.20e7 | – | 1.20e7 | 1.13e7 |
| Pdxk | DRSC10419 | 1.59e7 | 1.76e7 | – | 8.68e6 | 9.42e6 |
| CG4942 | DRSC10462 | 4.37e7 | 3.37e7 | – | 3.15e7 | 1.43e7 |
| CG13615 | DRSC14618 | 2.99e7 | 4.94e7 | – | 1.84e7 | 1.95e7 |
| CG8032 | DRSC16365 | 4.16e7 | 2.71e7 | – | 2.17e7 | 1.44e7 |
| DUBAI + Tmem18 | DRSC05344 | 4.52e7 | 5.55e7 | – | 2.03e7 | 2.31e7 |
| CG7406 | DRSC20042 | 4.38e7 | 4.30e7 | – | 2.00e7 | 1.96e7 |
| CG6793 | DRSC10714 | 3.51e7 | 4.98e7 | – | 1.62e7 | 2.17e7 |
| l(2)37Bb | DRSC02088 | 4.19e7 | 5.57e7 | – | 2.13e7 | 2.76e7 |
| CG30271 | DRSC04170 | 3.60e7 | 4.87e7 | – | 1.88e7 | 2.24e7 |
| CG14182 | DRSC10181 | 3.35e7 | 5.28e7 | – | 1.68e7 | 2.30e7 |
| Or2a | DRSC18690 | 3.81e7 | 5.82e7 | 2.2 | 1.75e7 | 2.45e7 |
| CG10916 | DRSC06012 | 3.84e7 | 3.67e7 | – | 1.83e7 | 1.78e7 |
| Cyp28a5 | DRSC03297 | 6.65e7 | – | – | 3.05e7 | – |
| Sptr | DRSC18719 | 2.40e7 | 2.89e7 | – | 1.10e7 | 1.25e7 |
| CG32054 | DRSC10684 | 2.63e7 | 4.26e7 | – | 1.43e7 | 1.81e7 |
| Ulp1 | DRSC19339 | 5.02e7 | 5.23e7 | – | 2.28e7 | 2.09e7 |
| ms(2)34Fe | DRSC01905 | 4.62e7 | 3.02e7 | – | 2.09e7 | 1.43e7 |
| CG14605 | DRSC12549 | 5.04e7 | 3.81e7 | – | 2.44e7 | 1.77e7 |
| Rrp42 | DRSC07161 | 2.37e7 | 2.95e7 | – | 1.43e7 | 1.70e7 |
| rdgA | DRSC17863 | 2.91e7 | 3.11e7 | – | 1.48e7 | 1.63e7 |
| rdgA | DRSC18036 | 3.02e7 | 3.18e7 | – | 1.45e7 | 1.52e7 |
| rdgA | DRSC18827 | 3.35e7 | 3.27e7 | – | 1.56e7 | 1.56e7 |
| CG7137 | DRSC07017 | 2.88e7 | 2.68e7 | – | 1.33e7 | 1.42e7 |
| Tusp | DRSC15838 | 1.43e7 | 3.50e7 | – | 8.50e6 | 1.44e7 |
| CG34205 | DRSC04149 | 4.32e7 | 5.67e7 | – | 2.02e7 | 2.44e7 |
| CG34205 | DRSC22823 | 3.11e7 | 3.95e7 | – | 1.51e7 | 1.73e7 |
| CG11475 | DRSC04113 | 2.91e7 | – | – | 1.48e7 | – |
| CG18281 | DRSC11742 | 3.83e7 | 4.58e7 | – | 1.92e7 | 3.07e7 |
| CG12935 + Nop10 | DRSC07025 | 4.20e7 | 4.14e7 | – | 2.11e7 | 1.66e7 |
| CG10073 | DRSC05961 | 4.65e7 | 5.42e7 | – | 1.95e7 | 2.49e7 |
| Trax | DRSC15709 | 4.04e7 | 5.01e7 | – | 1.69e7 | 2.11e7 |
| CG10749 | DRSC09798 | 2.64e7 | 3.47e7 | – | 1.35e7 | 1.69e7 |
| Cyp4d20 | DRSC08654 | 3.25e7 | 3.75e7 | – | 1.70e7 | 1.70e7 |
| fd102C | DRSC17203 | 6.01e7 | 5.67e7 | 2.1 | 2.89e7 | 2.33e7 |
| CG6843 | DRSC10725 | 1.86e7 | 3.48e7 | – | 1.06e7 | 1.61e7 |
| CG3335 | DRSC10358 | 1.92e7 | 2.42e7 | – | 1.25e7 | 1.45e7 |
| CG14933 + CG42486 | DRSC02415 | 3.51e7 | 4.47e7 | – | 1.78e7 | 1.91e7 |
| CR40441 | DRSC22916 | 4.16e7 | 3.79e7 | – | 2.22e7 | 1.78e7 |
| CG12784 | DRSC14539 | 2.57e7 | 3.38e7 | – | 1.25e7 | 4.10e7 |
| Cyp28d2 | DRSC03299 | 3.63e7 | 3.70e7 | – | 1.81e7 | 1.84e7 |

6 of these entries, reformatted:
{"gene knocked down": "CG12935 + Nop10", "DRSC id": "DRSC07025", "calcium entry signal, replicate 1 (fluorescence units)": 4.20e7, "calcium entry signal, replicate 2 (fluorescence units)": 4.14e7, "resting calcium signal, replicate 1 (fluorescence units)": 2.11e7, "resting calcium signal, replicate 2 (fluorescence units)": 1.66e7}
{"gene knocked down": "CG10073", "DRSC id": "DRSC05961", "calcium entry signal, replicate 1 (fluorescence units)": 4.65e7, "calcium entry signal, replicate 2 (fluorescence units)": 5.42e7, "resting calcium signal, replicate 1 (fluorescence units)": 1.95e7, "resting calcium signal, replicate 2 (fluorescence units)": 2.49e7}
{"gene knocked down": "Trax", "DRSC id": "DRSC15709", "calcium entry signal, replicate 1 (fluorescence units)": 4.04e7, "calcium entry signal, replicate 2 (fluorescence units)": 5.01e7, "resting calcium signal, replicate 1 (fluorescence units)": 1.69e7, "resting calcium signal, replicate 2 (fluorescence units)": 2.11e7}
{"gene knocked down": "CG10749", "DRSC id": "DRSC09798", "calcium entry signal, replicate 1 (fluorescence units)": 2.64e7, "calcium entry signal, replicate 2 (fluorescence units)": 3.47e7, "resting calcium signal, replicate 1 (fluorescence units)": 1.35e7, "resting calcium signal, replicate 2 (fluorescence units)": 1.69e7}
{"gene knocked down": "Cyp4d20", "DRSC id": "DRSC08654", "calcium entry signal, replicate 1 (fluorescence units)": 3.25e7, "calcium entry signal, replicate 2 (fluorescence units)": 3.75e7, "resting calcium signal, replicate 1 (fluorescence units)": 1.70e7, "resting calcium signal, replicate 2 (fluorescence units)": 1.70e7}
{"gene knocked down": "fd102C", "DRSC id": "DRSC17203", "calcium entry signal, replicate 1 (fluorescence units)": 6.01e7, "calcium entry signal, replicate 2 (fluorescence units)": 5.67e7, "entry to resting ratio": 2.1, "resting calcium signal, replicate 1 (fluorescence units)": 2.89e7, "resting calcium signal, replicate 2 (fluorescence units)": 2.33e7}
